Source: paper PMC10547647
These are yes or no findings as the source states them, for the method shown. Binding seen in cells or lysates may run through a third protein. Some entries that bind do so weakly or less than the wild type.

Sequences of proteins named here, by UniProt entry; tags and fusion partners are left off.
UniProt P06748: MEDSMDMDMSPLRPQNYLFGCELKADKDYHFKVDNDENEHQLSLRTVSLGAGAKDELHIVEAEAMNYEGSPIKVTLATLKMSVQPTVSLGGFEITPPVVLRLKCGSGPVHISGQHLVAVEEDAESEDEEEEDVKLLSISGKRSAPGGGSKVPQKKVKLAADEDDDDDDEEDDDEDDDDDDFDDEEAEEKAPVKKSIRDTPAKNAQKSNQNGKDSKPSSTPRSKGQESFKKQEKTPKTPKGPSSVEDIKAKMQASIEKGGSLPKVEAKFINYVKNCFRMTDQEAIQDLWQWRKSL
UniProt Q9GZP8: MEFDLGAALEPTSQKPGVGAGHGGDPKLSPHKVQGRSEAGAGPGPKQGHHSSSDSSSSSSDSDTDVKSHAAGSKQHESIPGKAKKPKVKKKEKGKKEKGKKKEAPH

Legend:
[1] = target: Nucleophosmin (NPM1), endogenous (human (endogenous in BxPC-3)) (UniProt P06748); test: co-IP; endogenous proteins of BxPC-3 cells; IP by anti-NPM1, Western blot
[2] = target: GFP-tagged IMUP (immortalization-upregulated protein) (UniProt Q9GZP8); test: co-IP; BxPC-3 cells transfected with GFP-tagged IMUP; IP by GFP beads, Western blot

Substance	binding [1]	binding [2]
Immortalization-upregulated protein (IMUP), endogenous (from UniProt Q9GZP8 1-106)	binds	
Nucleophosmin (NPM1), endogenous (from UniProt P06748 1-294)		binds
